Hit rate of the full screen: of about 390,000 compounds, about 610 (0.16%) were called active. Inconclusive results, whose numbers are uncertain, are shown with a selection of clear calls. The call rests on the fitted dose curve; in most records, active means well fitted inhibition curve with a large enough effect; inconclusive means small, poorly fitted or top-dose-only effect, or effect the other way, or another doubt; inactive means no such curve, though single readings can be large or run the other way. A potency beside an inconclusive call is a rough fit, not a confirmed value.
Assay: Nrf2 qHTS screen for inhibitors: counterscreen for cytotoxicity
Conditions: A549 ARE-Fluc cells, CellTiter-Fluor viability, 18-24 h; activity change, negative = cytotoxicity: at 46 µM (top of the series)
Summary of the method: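 Cytotoxicity counterscreen: CellTiter-Fluor fluorescence was measured in A549 ARE_Fluc cells after 18-24 h of compound exposure in a concentration series. The subsequent BugLite luminescent read reports ARE-luciferase activity.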
On the % scale 0 is the no-effect control and ±100 the full control effect; potency means the concentration at half of the fitted maximal effect.

| Structure (SMILES) | Potency | activity change, negative = cytotoxicity |
| --- | --- | --- |
| C/C(=N/Nc1ccc([N+](=O)[O-])cc1)c1ccc(C)cc1C | inconclusive: 23.1 µM [falling, partial curve, poor fit] | – |
| COCCNC(=O)c1ccc2nc(Cc3ccc(OC)c(OC)c3)oc2c1 | inconclusive: 29.1 µM [activator, single point] | – |
| C=CCN1c2ccccc2[C@]23C[C@@H](C(=O)OC)N(C(=O)c4ccc(Br)cc4)C2=NC(C(=O)OC)=C(C(=O)OC)[C@H]13 | inconclusive: 32.6 µM [falling, partial curve, poor fit] | – |
| CCCc1cc(NCCCn2ccnc2)n2nc(C)c(-c3ccccc3)c2n1 | inconclusive: 6.51 µM [activator, partial curve, poor fit] | – |
| CCN(CC)S(=O)(=O)c1ccc2c(c1)N(CC(=O)N1CCN(c3ccc(F)cc3)CC1)C(=O)CO2 | – | inactive: -7.5% |
| Cc1ccc(Nc2ncccc2C(=O)O)cc1C | – | inactive: 0.567% |
| CC(=O)n1nc(-c2ccncc2)nc1SCC(=O)Nc1cccc(Cl)c1 | – | inactive: -1.36% |
| COc1cc(-c2ccc(Nc3ccccc3C(=O)O)c(OC)c2)ccc1Nc1ccccc1C(=O)O | inconclusive: 32.6 µM [falling, partial curve, poor fit] | – |
| Cc1cc(Nc2cccc(Cl)c2)nc2ccc(NC(=O)Cc3cccc(C(F)(F)F)c3)cc12 | inconclusive: 18.4 µM [falling, partial curve, poor fit] | – |
| CCC(C)(C)NC(=O)C(c1cccc(OC)c1OC)N(Cc1ccc(OC)cc1)C(=O)CCC(=O)Nc1cc(C)on1 (stereo not drawn) | inconclusive: 16.4 µM [falling, partial curve, poor fit] | – |
| CCc1ccc(CNc2ncnc3c2nc2n3CCCC2)cc1 | – | inactive: 1.69% |
| CCCCC(=O)OC1CCC2C3CCc4cc(O)ccc4C3CCC12C (stereo not drawn) | inconclusive: 16.4 µM [falling, partial curve, poor fit] | – |
| COc1cc(C(=O)Oc2ccc3ccc(O)cc3c2)cc(OC)c1OC | – | inactive: -3.61% |
| O=C(c1ccc(S(=O)(=O)N2CCCC2)cc1)N1CCCCCC1 | – | inactive: -2.4% |
| COc1ccc(-c2nn(-c3ccccc3)cc2/C=N/Nc2ccc3ccccc3n2)cc1OC | inconclusive: 32.6 µM [falling, partial curve, poor fit] | – |
| CCOC(=O)Cc1csc(NC(=O)c2ccc(C)c(S(=O)(=O)N3CCOCC3)c2)n1 | – | inactive: 6.32% |
| O=C(NC1CCCCCCC1)c1cc(COc2ccc3ncccc3c2)on1 | inconclusive: 10.3 µM [falling, partial curve, poor fit] | – |
| O=C(O)c1ccc(N/N=C/c2cc(Br)cs2)cc1 | inconclusive: 18.4 µM [falling, partial curve, poor fit] | – |
| CN1c2ccc([N+](=O)[O-])cc2N(C)C1(C)c1ccccc1 (stereo not drawn) | inconclusive: 23.1 µM [falling, single point] | – |
| Cc1ccc(S(=O)(=O)c2nnn3c2nc(Nc2cccc(C)c2)c2ccccc23)cc1 | – | inactive: 2.32% |
| CCn1c(-c2ccccn2)nc2cc(S(=O)(=O)N(C)C)ccc21 | – | inactive: -3.33% |
| CNc1oc(-c2ccccc2Cl)nc1P(=O)(c1ccccc1)c1ccccc1 | inconclusive: 18.4 µM [falling, single point] | – |

An excerpt from above in order of number of heavy atoms, falling:

| Structure (SMILES) | Potency | activity change, negative = cytotoxicity |
| --- | --- | --- |
| Cc1cc(Nc2cccc(Cl)c2)nc2ccc(NC(=O)Cc3cccc(C(F)(F)F)c3)cc12 | inconclusive: 18.4 µM [falling, partial curve, poor fit] | – |
| CCOC(=O)Cc1csc(NC(=O)c2ccc(C)c(S(=O)(=O)N3CCOCC3)c2)n1 | – | inactive: 6.32% |
| COc1cc(C(=O)Oc2ccc3ccc(O)cc3c2)cc(OC)c1OC | – | inactive: -3.61% |

Remaining list, next part

| Structure (SMILES) | Potency | activity change, negative = cytotoxicity |
| --- | --- | --- |
| CN(C)c1ccc(NC(=O)CSc2nc(N)c(C(=O)Nc3ccc(N(C)C)cc3)s2)cc1 | inconclusive: 14.1 µM [falling, single point] | – |
| CC1=NN(/C(=N\c2nnc(C)s2)Nc2ccc(C(C)(C)C)cc2)[C@H](c2ccc(C)cc2)S1 | inconclusive: 29.1 µM [falling, single point] | – |
| Cc1ccc(/C=C2/NC(=O)N(Cc3ccc(Br)cc3)C2=O)o1 | inconclusive: 25.9 µM [falling, partial curve, poor fit] | – |
| CC1=NN(c2cccc(Cl)c2)C(=O)C1 | – | inactive: -5.42% |
| Cc1ccc2c(c1)-c1cc(C)nn1C(c1sccc1C)N2 (stereo not drawn) | – | inactive: 2.22% |
| CC1(C)CC(NS(=O)(=O)OCC(Cl)(Cl)Cl)c2cc(C#N)ccc2O1 (stereo not drawn) | inconclusive: 29.1 µM [falling, single point] | – |
| Cc1ccc(C)c(NC(=O)c2cnn(-c3cccc(F)c3)c2C2CCN(C(=O)OC(C)(C)C)CC2)c1 | – | inactive: 1.8% |
| CN1C=C/C(=C\c2cc[n+](C)c3ccccc23)c2ccccc21 | inconclusive: 14.6 µM [falling, partial curve] | – |
| CN(C)CCOC1c2ccccc2CCc2ccc3ccccc3c21 (stereo not drawn) | inconclusive: 25.9 µM [falling, single point] | – |
| Cc1c(Cc2ccccc2)c(NCCN(C)C)n2c(nc3ccccc32)c1C#N | inconclusive: 7.31 µM [falling, partial curve, poor fit] | – |
| COc1ccc(Cn2c(=O)[nH]c3cc(C(=O)NCc4ccc5c(c4)OCO5)ccc3c2=O)cc1 | – | inactive: -1.64% |
| COc1ccc(NS(=O)(=O)c2cc(NC(=O)CCSc3ccccc3)ccc2OC)cc1 | – | inactive: -7.21% |
| O=C(NCc1cccnc1)/C(=C/c1ccc(-c2cccc(C(F)(F)F)c2)o1)NC(=O)c1ccccc1 | – | inactive: 7.92% |
| CCOC(=O)c1sc(NC(=O)CSc2nnc(C)s2)c(C(=O)OCC)c1C | inconclusive: 11.6 µM [activator, single point] | – |
| COc1ccc(OC)c(CCNC(=O)CCCn2c(=O)c3cccn3c3ccccc32)c1 | – | inactive: 0.134% |
| O=C(O)c1cc(=S)nc[nH]1 | – | inactive: 10.1% |
| COc1ccc(C(=O)C/C(=C\C(=O)c2ccc(C)cc2)c2ccccc2)cc1 | inconclusive: 25.9 µM [falling, single point] | – |
| O=C(NCCc1ccccc1Cl)c1ccc(Cn2c(=O)c3cccn3c3cccnc32)cc1 | inconclusive: 32.6 µM [falling, single point] | – |
| O=C1CC(c2cc(Br)ccc2F)c2cc3c(cc2N1)CCC3 (stereo not drawn) | inconclusive: 23.1 µM [falling, single point] | – |
| COCCCNCCOc1cc(C(C)C)ccc1C | inconclusive: 3.26 µM [activator, partial curve, poor fit] | – |
| Clc1ccc(-c2csc(N/N=C/c3ccco3)n2)cc1 | inconclusive: 32.6 µM [falling, partial curve, poor fit] | – |

— PubChem BioAssay AID504648 (National Center for Advancing Translational Sciences (NCATS), 2011)
